Here are results for 4 molecules from PMC8176713.

Residue numbers refer to the chain shown, from its start. Names and notes keep the numbering of the source. These are yes or no findings as the source states them, for the method shown. In cells and extracts the contact can be indirect. Some entries that bind do so weakly or less than the wild type. Tags and fused reporters may be left off the sequences shown.

Holding throughout (assay): co-IP; lysates of log phase yeast co-expressing Hfl1-GFP (TEF1 promoter) and 8 V5-Atg8 (own promoter) loaded on anti-GFP affinity resin, 4C, 2 h; lysis buffer 50 mM Tris-Cl, 150 mM NaCl, 10% glycerol, 1 mM EDTA, 1 mM PMSF, 0.2% NP-40, pH 7.4; immunoblot
Test [1] addresses T1, Hfl1-GFP W371A I375A (S. cerevisiae) (UniProt P36142).
T1 sequence: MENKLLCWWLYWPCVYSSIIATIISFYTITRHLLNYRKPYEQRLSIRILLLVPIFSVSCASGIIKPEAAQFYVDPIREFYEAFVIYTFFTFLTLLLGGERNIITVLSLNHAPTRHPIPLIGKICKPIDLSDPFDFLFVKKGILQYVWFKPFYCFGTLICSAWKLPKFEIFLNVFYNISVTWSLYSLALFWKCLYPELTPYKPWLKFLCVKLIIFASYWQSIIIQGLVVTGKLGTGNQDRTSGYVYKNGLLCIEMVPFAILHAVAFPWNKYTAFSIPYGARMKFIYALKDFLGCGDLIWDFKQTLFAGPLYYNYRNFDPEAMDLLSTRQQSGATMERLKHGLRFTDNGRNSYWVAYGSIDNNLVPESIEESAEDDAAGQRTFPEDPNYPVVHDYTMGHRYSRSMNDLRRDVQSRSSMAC

A further test addresses T2, Hfl1-GFP (S. cerevisiae) (UniProt P36142).
T2 sequence: T1 sequence with A371W, A375I

In test [2] the target is T3, Hfl1-GFP Y387A (S. cerevisiae) (UniProt P36142).
T3 sequence: T1 sequence with A371W, A375I, Y387A

Test [3] concerns the target T4, Hfl1-GFP D384A (S. cerevisiae) (UniProt P36142).
T4 sequence: T1 sequence with A371W, A375I, D384A

B1: 8 V5-Atg8 (protein, UniProt P38182 1-117)
chain: MKSTFKSEYPFEKRKAESERIADRFKNRIPVICEKAEKSDIPEIDKRKYLVPADLTVGQFVYVIRKRIMLPPEKAIFIFVNDTLPPTAALMSAIYQEHKDKDGFLYVTYSGENTFGR
Turning to B1, the binding entry (in test [1]; with Hfl1-GFP (S. cerevisiae); in test [2]; in test [3]) was “binds” in each case.

B2: 8 V5-Atg8 T56A T87A (protein, UniProt P38182 1-117)
chain: B1 chain with T56A, T87A
In the case of B2, the binding result in the test with Hfl1-GFP (S. cerevisiae) is on record as “binds”.

B3: 8 V5-Atg8 P85A P86A (protein, UniProt P38182 1-117)
chain: B1 chain with P85A, P86A
In the case of B3, the binding entry with Hfl1-GFP (S. cerevisiae) was “binds”.

B4: 8 V5-Atg8 T56A R65A T87A (protein, UniProt P38182 1-117)
chain: B1 chain with T56A, R65A, T87A
As to B4, the binding result with Hfl1-GFP (S. cerevisiae) is reported as “binds weakly”.
